From paper PMC10605096
Results are given in words; binding and its absence hold for the method and conditions named. Binding can be weak; no strength is given. For part of these data: Binding seen in cells or lysates may run through a third protein. Blank lines part the entries; values can stand above or below the substance they belong to.

Amino acid sequences for entries named in this document (tags omitted). A change or cut given only in a name is not applied to a line headed by its entry.
UniProt I1LHR2: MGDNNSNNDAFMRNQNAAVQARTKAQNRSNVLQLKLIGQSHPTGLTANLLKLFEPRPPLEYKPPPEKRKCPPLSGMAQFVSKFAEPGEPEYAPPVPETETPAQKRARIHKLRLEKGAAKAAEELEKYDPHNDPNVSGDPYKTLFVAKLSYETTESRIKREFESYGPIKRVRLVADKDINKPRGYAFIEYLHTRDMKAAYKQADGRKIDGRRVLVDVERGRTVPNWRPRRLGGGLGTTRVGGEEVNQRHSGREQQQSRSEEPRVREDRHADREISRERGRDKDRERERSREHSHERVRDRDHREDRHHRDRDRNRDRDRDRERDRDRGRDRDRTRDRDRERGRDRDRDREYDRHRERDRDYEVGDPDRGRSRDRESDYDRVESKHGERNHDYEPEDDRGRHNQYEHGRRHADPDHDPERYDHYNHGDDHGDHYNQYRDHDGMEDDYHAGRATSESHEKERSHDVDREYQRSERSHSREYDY
UniProt A0A0R0KPC1: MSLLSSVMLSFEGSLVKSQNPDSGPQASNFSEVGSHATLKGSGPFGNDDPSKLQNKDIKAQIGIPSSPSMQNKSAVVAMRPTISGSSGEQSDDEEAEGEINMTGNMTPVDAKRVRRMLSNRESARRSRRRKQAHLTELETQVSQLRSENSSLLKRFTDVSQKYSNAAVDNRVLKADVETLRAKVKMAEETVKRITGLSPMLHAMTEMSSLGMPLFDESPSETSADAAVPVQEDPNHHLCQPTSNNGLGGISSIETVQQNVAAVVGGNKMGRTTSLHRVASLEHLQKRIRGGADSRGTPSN
UniProt C6THB4: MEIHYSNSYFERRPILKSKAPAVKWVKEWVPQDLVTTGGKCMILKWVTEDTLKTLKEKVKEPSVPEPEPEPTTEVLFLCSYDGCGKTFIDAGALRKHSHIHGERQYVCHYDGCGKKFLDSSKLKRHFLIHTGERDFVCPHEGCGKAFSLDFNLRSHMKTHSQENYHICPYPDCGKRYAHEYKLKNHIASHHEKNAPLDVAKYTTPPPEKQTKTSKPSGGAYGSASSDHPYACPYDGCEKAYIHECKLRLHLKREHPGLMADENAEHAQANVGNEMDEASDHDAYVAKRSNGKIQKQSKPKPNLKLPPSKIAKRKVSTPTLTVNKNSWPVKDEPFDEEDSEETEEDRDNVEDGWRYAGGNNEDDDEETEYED
UniProt I1L345: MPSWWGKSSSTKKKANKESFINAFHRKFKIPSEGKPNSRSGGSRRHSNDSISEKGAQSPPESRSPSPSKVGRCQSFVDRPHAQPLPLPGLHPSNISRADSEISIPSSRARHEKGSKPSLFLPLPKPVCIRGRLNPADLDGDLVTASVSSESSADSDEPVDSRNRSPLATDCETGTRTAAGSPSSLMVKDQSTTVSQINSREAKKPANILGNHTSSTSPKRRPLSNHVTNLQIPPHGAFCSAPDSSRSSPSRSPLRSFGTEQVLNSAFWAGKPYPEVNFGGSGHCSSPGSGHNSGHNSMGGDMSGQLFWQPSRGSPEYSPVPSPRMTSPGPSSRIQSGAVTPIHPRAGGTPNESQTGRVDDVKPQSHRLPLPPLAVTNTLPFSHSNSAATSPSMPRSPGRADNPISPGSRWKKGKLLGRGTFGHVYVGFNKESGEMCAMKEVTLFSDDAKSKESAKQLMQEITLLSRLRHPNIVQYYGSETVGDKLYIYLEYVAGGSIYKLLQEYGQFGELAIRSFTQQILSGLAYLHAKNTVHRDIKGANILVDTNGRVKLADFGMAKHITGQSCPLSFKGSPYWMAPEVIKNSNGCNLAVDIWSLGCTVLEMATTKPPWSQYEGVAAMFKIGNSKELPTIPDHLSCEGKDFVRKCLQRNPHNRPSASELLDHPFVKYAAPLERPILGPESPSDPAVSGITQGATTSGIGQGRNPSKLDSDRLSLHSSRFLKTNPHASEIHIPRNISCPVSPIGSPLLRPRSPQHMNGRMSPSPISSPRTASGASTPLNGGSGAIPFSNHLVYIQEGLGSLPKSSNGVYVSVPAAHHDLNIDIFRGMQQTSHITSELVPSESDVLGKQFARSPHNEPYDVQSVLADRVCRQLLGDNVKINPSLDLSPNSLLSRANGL
UniProt I1KR32: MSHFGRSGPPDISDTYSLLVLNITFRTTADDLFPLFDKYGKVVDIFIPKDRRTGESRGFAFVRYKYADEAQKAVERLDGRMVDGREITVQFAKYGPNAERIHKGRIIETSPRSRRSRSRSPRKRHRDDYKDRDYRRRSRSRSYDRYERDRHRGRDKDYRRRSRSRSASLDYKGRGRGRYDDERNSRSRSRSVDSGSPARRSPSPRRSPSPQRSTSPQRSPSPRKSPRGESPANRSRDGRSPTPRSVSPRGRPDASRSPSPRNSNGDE

Legend:
[1] = biological target: GmMPK9 (cLUC fusion for split-LUC) (Glycine max (soybean)); assay: split reporter; split-LUC complementation: cLUC-K/Ps and nLUC-interacting proteins co-infiltrated by Agrobacterium GV3101 into 4-week-old tobacco leaves; LUC signals observed after 48 h
[2] = biological target: GmPRP4KA (BD fusion for Y2H) (Glycine max (soybean)); assay: two-hybrid; bait in pGBKT7 (BD-K/Ps), prey in pGADT7 (AD-interacting proteins), co-transformed into Y2H gold yeast; growth on selective media for 5-8 days at 28 °C
[3] = biological target: GmSIT4 (cLUC fusion for split-LUC) (Glycine max (soybean)) (UniProt K7LBE9); assay: split reporter; split-LUC complementation: cLUC-K/Ps and nLUC-interacting proteins co-infiltrated by Agrobacterium GV3101 into 4-week-old tobacco leaves; LUC signals observed after 48 h
[4] = biological target: GmSnRK1β (cLUC fusion for split-LUC) (Glycine max (soybean)); assay: as above
[5] = biological target: GmPRP4KA (cLUC fusion for split-LUC) (Glycine max (soybean)); assay: as above
[6] = biological target: GmSIT4 (BD fusion for Y2H) (Glycine max (soybean)) (UniProt K7LBE9); assay: two-hybrid; bait in pGBKT7 (BD-K/Ps), prey in pGADT7 (AD-interacting proteins), co-transformed into Y2H gold yeast; growth on selective media for 5-8 days at 28 °C
[7] = biological target: GmSnRK1β (BD fusion for Y2H) (Glycine max (soybean)); assay: as above
[8] = biological target: GmMPK9 (BD fusion for Y2H) (Glycine max (soybean)); assay: as above

Substance: GmU1-70K (AD fusion for Y2H) (from UniProt I1LHR2)
binding [2]: binds

Substance: GmNUC-L2 (nLUC fusion for split-LUC) (from UniProt I1LPJ9)
binding [3]: binds

Substance: GmbZIP63 (nLUC fusion for split-LUC) (from UniProt A0A0R0KPC1)
binding [4]: binds

Substance: GmNUC-L2 (AD fusion for Y2H) (from UniProt I1LPJ9)
binding [6]: binds

Substance: GmYY1 (nLUC fusion for split-LUC) (from UniProt C6THB4)
binding [1]: binds

Substance: GmYODA (AD fusion for Y2H) (from UniProt I1L345) (enzyme)
binding [8]: binds

Substance: GmYY1 (AD fusion for Y2H) (from UniProt C6THB4)
binding [8]: binds

Further lines, results first:

binding [1]: binds
Substance: GmYODA (nLUC fusion for split-LUC) (from UniProt I1L345) (enzyme)

binding [2]: binds
Substance: GmSC35 (AD fusion for Y2H) (from UniProt I1KR32)

binding [5]: binds
Substance: GmU1-70K (nLUC fusion for split-LUC) (from UniProt I1LHR2)

binding [7]: binds
Substance: GmbZIP63 (AD fusion for Y2H) (from UniProt A0A0R0KPC1)

binding [5]: binds
Substance: GmSC35 (nLUC fusion for split-LUC) (from UniProt I1KR32)
